# Results deposited as PubChem BioAssay AID686938 (Drosophila RNAi Screening Center, 2013)
# Assay: 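Fly genes required for calcium entry once internal stores are emptied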 (primary screen)
# Cell system: Drosophila S2R+ cells
# Knock-down reagent: long dsRNA against Drosophila genes, about 0.25 µg dsRNA per well, roughly 10,000 cells
# Duration: 5 days of knock-down before the calcium assay
# Challenge: thapsigargin (SERCA pump blocker) to empty calcium stores; entry signal taken 4 min after adding it
# Read-out: 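Duplicate raw fluo-4 intensities per well from a plate reader, at rest and four minutes after thapsigargin emptied calcium stores; entry-to-rest ratio filled for only some wells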
# Direction: calcium entry signal: higher = stronger calcium signal after store depletion; entry to resting ratio: higher = more calcium entry relative to resting level; resting calcium signal: higher = higher resting calcium signal
# Active means: 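Hit if the duplicate-averaged plate z-score for entry over resting signal is under −3; wells with weak total dye signal (Fmax z < −2) or more than 5 off-targets removed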
# Meaning of the calls: active = strongly reduced calcium entry; inactive = no strong reduction
# The screen tested about 23,000 reagents; below is an unselected part of those that have a named target and a result. Of all reagents, 75 (0.33%) were called active. 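Raw plate signals without normalisation; calls rest on plate z-scores that were not deposited; ratio present for only 364 wells.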 Reagents against one gene are numbered here. Not stated in the record: the dose of the treatment.
Gene,reagent,"calcium entry signal, replicate 1 (fluorescence units)","calcium entry signal, replicate 2 (fluorescence units)",entry to resting ratio,"resting calcium signal, replicate 1 (fluorescence units)","resting calcium signal, replicate 2 (fluorescence units)",call
ex,1,4.03e7,,,2.39e7,,inactive
CG43736,1,3.23e7,3.64e7,,1.61e7,1.60e7,inactive
CG43736,2,3.55e7,3.52e7,,1.74e7,1.60e7,inactive
spn-F,1,1.81e7,1.43e7,,1.09e7,8.46e6,inactive
CG42741,1,4.36e7,5.26e7,,2.22e7,2.41e7,inactive
CG42741,2,3.07e7,4.44e7,,1.47e7,2.02e7,inactive
Schip1,1,4.34e7,6.63e7,,1.90e7,2.58e7,inactive
lark,1,4.77e7,4.63e7,,3.28e7,2.04e7,inactive
dpy,1,2.41e7,3.47e7,,1.38e7,1.65e7,inactive
dpy,2,3.39e7,3.72e7,,1.73e7,1.71e7,inactive
dpy,3,3.17e7,2.81e7,,1.50e7,1.31e7,inactive
Hsc70-3,1,1.65e7,2.76e7,,1.02e7,1.50e7,inactive
ATP7,1,2.99e7,3.94e7,,1.52e7,1.87e7,inactive
CG42807,1,3.55e7,4.91e7,,1.82e7,2.28e7,inactive
Chsy,1,2.47e7,2.96e7,,1.36e7,1.48e7,inactive
Chsy,2,2.74e7,3.11e7,,1.45e7,1.45e7,inactive

Reprinted from the entries so far for reference:
Gene,reagent,"calcium entry signal, replicate 1 (fluorescence units)","calcium entry signal, replicate 2 (fluorescence units)",entry to resting ratio,"resting calcium signal, replicate 1 (fluorescence units)","resting calcium signal, replicate 2 (fluorescence units)",call
dpy,2,3.39e7,3.72e7,,1.73e7,1.71e7,inactive
dpy,3,3.17e7,2.81e7,,1.50e7,1.31e7,inactive
Hsc70-3,1,1.65e7,2.76e7,,1.02e7,1.50e7,inactive
ATP7,1,2.99e7,3.94e7,,1.52e7,1.87e7,inactive
CG42807,1,3.55e7,4.91e7,,1.82e7,2.28e7,inactive
Chsy,1,2.47e7,2.96e7,,1.36e7,1.48e7,inactive

More entries follow.
Gene,reagent,"calcium entry signal, replicate 1 (fluorescence units)","calcium entry signal, replicate 2 (fluorescence units)",entry to resting ratio,"resting calcium signal, replicate 1 (fluorescence units)","resting calcium signal, replicate 2 (fluorescence units)",call
CG3713,1,5.38e7,5.23e7,2,2.63e7,2.11e7,inactive
ND-B14.5A,1,5.18e7,5.17e7,2,2.60e7,2.26e7,inactive
CG9447,1,2.33e7,2.95e7,,1.18e7,1.23e7,inactive
CG1792,1,3.34e7,4.55e7,2.2,1.50e7,1.90e7,inactive
CG13148,1,3.11e7,4.09e7,,1.80e7,1.96e7,inactive
CG10357,1,3.14e7,4.48e7,,1.64e7,2.06e7,inactive
lbk,1,3.18e7,3.09e7,,1.49e7,1.53e7,inactive
CG10339,1,3.10e7,4.29e7,,1.72e7,1.93e7,inactive
CG17991,1,3.73e7,6.31e7,,2.05e7,2.59e7,inactive
Slc45-1,1,2.91e7,2.74e7,,1.51e7,1.30e7,inactive
CG16904,1,3.00e7,4.33e7,,1.37e7,1.85e7,inactive
Qsox2,1,2.07e7,2.13e7,,1.05e7,1.06e7,inactive
gukh,1,3.40e7,3.32e7,,4.04e7,1.44e7,inactive
gukh,2,3.69e7,3.37e7,,4.56e7,1.52e7,inactive
gukh,3,3.07e7,2.45e7,,1.57e7,1.19e7,inactive
CG31301,1,3.06e7,3.88e7,,1.43e7,1.87e7,inactive
RabX1,1,3.74e7,4.31e7,,2.00e7,2.23e7,inactive
chas,1,2.48e7,3.16e7,,1.38e7,1.36e7,inactive
chas,2,2.69e7,2.94e7,,1.42e7,1.32e7,inactive
CG30008,1,3.85e7,3.06e7,,2.34e7,1.51e7,inactive
topi,1,4.02e7,4.27e7,,1.95e7,2.47e7,inactive
CG14342,1,3.36e7,4.49e7,,1.75e7,2.09e7,inactive
CG7542,1,5.24e7,7.10e7,,2.33e7,2.86e7,inactive
CG8534,1,3.26e7,4.16e7,,1.57e7,1.86e7,inactive
